Results are given in words; binding and its absence hold for the method and conditions named. Sequences can lack the tags named with a protein.
Molecular target: T1, Kin28 alone, binding-domain fusion from pGBD-Kin28 (UniProt P06242)
T1 sequence: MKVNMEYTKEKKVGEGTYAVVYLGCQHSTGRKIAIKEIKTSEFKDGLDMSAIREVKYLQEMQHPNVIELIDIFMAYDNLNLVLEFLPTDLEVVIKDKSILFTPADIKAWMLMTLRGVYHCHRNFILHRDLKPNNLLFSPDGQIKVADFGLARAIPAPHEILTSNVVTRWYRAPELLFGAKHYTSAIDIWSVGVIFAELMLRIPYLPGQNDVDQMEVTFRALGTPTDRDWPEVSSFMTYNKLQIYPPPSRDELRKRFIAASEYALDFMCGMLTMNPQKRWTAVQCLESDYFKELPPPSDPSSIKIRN
Assay: two-hybrid; modified yeast two-hybrid; bait: pGBD fusions (CTD-Kin28, CTD-mKin28, Kin28); prey: pGAD-PCFS4; the tethered Kin28 phosphorylates the CTD

- binding: no binding
B1: Arabidopsis Pcf11-similar-4 protein (PCFS4), activation-domain fusion from pGAD-PCFS4 (protein, UniProt Q0WPF2 1-808)
chain: MDSEKILNPRLVSINSTSRKGMSVELPQKPPPPPSLLDRFKALLNQREDEFGGGEEVLPPSMDEIVQLYEVVLGELTFNSKPIITDLTIIAGEQREHGEGIANAICTRILEAPVEQKLPSLYLLDSIVKNIGRDYGRYFSSRLPEVFCLAYRQAHPSLHPSMRHLFGTWSSVFPPPVLRKIDMQLQLSSAANQSSVGASEPSQPTRGIHVNPKYLRRLEPSAAENNLRGINSSARVYGQNSLGGYNDFEDQLESPSSLSSTPDGFTRRSNDGANPSNQAFNYGMGRATSRDDEHMEWRRKENLGQGNDHERPRALIDAYGVDTSKHVTINKPIRDMNGMHSKMVTPWQNTEEEEFDWEDMSPTLDRSRAGEFLRSSVPALGSVRARPRVGNTSDFHLDSDIKNGVSHQLRENWSLSQNYPHTSNRVDTRAGKDLKVLASSVGLVSSNSEFGAPPFDSIQDVNSRFGRALPDGTWPHLSARGPNSLPVPSAHLHHLANPGNAMSNRLQGKPLYRPENQVSQSHLNDMTQQNQMLVNYLPSSSAMAPRPMQSLLTHVSHGYPPHGSTIRPSLSIQGGEAMHPLSSGVLSQIGASNQPPGGAFSGLIGSLMAQGLISLNNQPAGQGPLGLEFDADMLKIRNESAISALYGDLPRQCTTCGLRFKCQEEHSKHMDWHVTKNRMSKNHKQNPSRKWFVSASMWLSGAEALGAEAVPGFLPTEPTTEKKDDEDMAVPADEDQTSCALCGEPFEDFYSDETEEWMYKGAVYMNAPEESTTDMDKSQLGPIVHAKCRPESNGGDMEEGSQRKKMRS

From PMC3844406
